Laboratory results taken from the supplement of paper PMC8166895.
Where “and” joins values, the source holds several entries; their conditions need not be identical. Equal values may be shown once. Where a name gives a salt, the structure may show the parent alone. The list shows a part of the results. Most values lie at the level of the controls, where differences are scatter.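 A single-replicate pilot screen of approved drugs and clinical or known-target compounds measured melting temperature via differential scanning fluorimetry. Top stabilizing hits raised the melting point by 2 °C or more; negative shifts indicate destabilization.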

System: SARS-CoV-2 main protease (Mpro, nsp5)
Assay: thermal shift ΔTm of Mpro relative to plate average Tm; higher = stronger thermal stabilization of Mpro (binding)
Conditions: 10 µM; protein concentration 1 µM

**Q.** With `Cc1ccccc1-n1c(Cn2cnc3c(N)ncnc32)nc2cccc(C)c2c1=O` as the molecule, how does the “thermal shift ΔTm of Mpro” value read?
**A.** 0.201 °C

**Q.** Which “thermal shift ΔTm of Mpro” value does the source give for `N#C/C(=C\c1ccc(O)c(O)c1)C(=O)NCCCc1ccccc1` here?
**A.** -0.41 °C

**Q.** How did the “thermal shift ΔTm of Mpro” value turn out when `O=[N+]([O-])c1ccc(S(=O)(=O)N2CCN(c3ccnc4cc(Cl)ccc34)CC2)c([N+](=O)[O-])c1` was run?
**A.** -0.389 °C

**Q.** Which “thermal shift ΔTm of Mpro” value does the source give for `O=C(O)c1cc(N(Cc2ccccc2O)Cc2cc(O)ccc2O)ccc1O` [lavendustin A] here?
**A.** -0.00392 °C

**Q.** Which “thermal shift ΔTm of Mpro” value does the source give for `CN/C(=N\CCSCc1nc[nH]c1C)NC#N` [Cimetidine] here?
**A.** 0.0424 °C

**Q.** With `COc1ccc(C2=N[C@@H](c3ccc(Cl)cc3)[C@@H](c3ccc(Cl)cc3)N2C(=O)N2CCNC(=O)C2)c(OC(C)C)c1` [Nutlin-3] as the molecule, how does the “thermal shift ΔTm of Mpro” value read?
**A.** -0.179 °C

**Q.** `COc1ccc(C2=N[C@@H](c3ccc(Cl)cc3)[C@@H](c3ccc(Cl)cc3)N2C(=O)N2CCNC(=O)C2)c(OC(C)C)c1` [Nutlin-3a] was tested. Which “thermal shift ΔTm of Mpro” value did it give?
**A.** -0.225 °C

**Q.** `COc1ccc(S(=O)(=O)N(Cc2cccnc2)[C@@H](C(=O)NO)C(C)C)cc1` was tested. Which “thermal shift ΔTm of Mpro” value did it give?
**A.** 0.0379 °C

**Q.** `CC(C)N(CCCCOCC(=O)NS(C)(=O)=O)c1cnc(-c2ccccc2)c(-c2ccccc2)n1` [Selexipag] was tested. Which “thermal shift ΔTm of Mpro” value did it give?
**A.** -0.0447 °C

**Q.** `C#C[C@]1(O)CC[C@H]2[C@@H]3CCC4=CC(=O)CC[C@@H]4[C@H]3C(=C)C[C@@]21CC` [Etonogestrel] was tested. Which “thermal shift ΔTm of Mpro” value did it give?
**A.** 0.325 °C

**Q.** How did the “thermal shift ΔTm of Mpro” value turn out when `NC(=O)c1ccc(I)c([N+](=O)[O-])c1` [Iniparib (BSI-201)] was run?
**A.** 0.134 °C

**Q.** Which “thermal shift ΔTm of Mpro” value does the source give for `c1ccc(-c2oc3ncnc(NC[C@@H]4CCCO4)c3c2-c2ccccc2)cc1` here?
**A.** -0.253 °C

**Q.** `O=C(O)c1cc(/N=N/c2ccc(S(=O)(=O)Nc3ccccn3)cc2)ccc1O` [Sulfasalazine] was tested. Which “thermal shift ΔTm of Mpro” value did it give?
**A.** -0.159 °C

**Q.** How did the “thermal shift ΔTm of Mpro” value turn out when `C=C1c2cccc(O)c2C(O)=C2C(=O)[C@]3(O)C(O)=C(C(N)=O)C(=O)[C@@H](N(C)C)[C@@H]3[C@@H](O)[C@H]12` [Methacycline HCl] was run?
**A.** -0.0903 °C

**Q.** How did the “thermal shift ΔTm of Mpro” value turn out when `COCC1(CO)C(=O)C2CCN1CC2` (stereo not drawn) was run?
**A.** 0.293 °C

**Q.** With `Cc1cccc(C(C)c2c[nH]cn2)c1C` (stereo not drawn) [Medetomidine HCl] as the molecule, how does the “thermal shift ΔTm of Mpro” value read?
**A.** -0.0613 °C

**Q.** How did the “thermal shift ΔTm of Mpro” value turn out when `C=C[C@H]1CN2CC[C@H]1C[C@H]2[C@H](O)c1ccnc2ccccc12` [Cinchonidine] was run?
**A.** -0.0233 °C

**Q.** For `O=C(O)c1ccc2nc(-c3cc(Cl)cc(Cl)c3)oc2c1` [Tafamidis], which “thermal shift ΔTm of Mpro” value is on record?
**A.** -0.0794 °C

**Q.** Which “thermal shift ΔTm of Mpro” value does the source give for `OCCn1cc(-c2cnc3nnn(Cc4ccc5ncccc5c4)c3n2)cn1` here?
**A.** 0.13 °C

**Q.** `O=C(O)c1ccccc1OP(=O)(O)O` [Fosfosal] was tested. Which “thermal shift ΔTm of Mpro” value did it give?
**A.** 0.079 °C

**Q.** For `Cc1ncc([N+](=O)[O-])n1CC(C)O` (stereo not drawn) [Secnidazole], which “thermal shift ΔTm of Mpro” value is on record?
**A.** -0.0697 °C

**Q.** For `C/C=C(/C(=C/C)c1ccc(O)cc1)c1ccc(O)cc1` [Dienestrol], which “thermal shift ΔTm of Mpro” value is on record?
**A.** -0.228 °C

**Q.** `COc1ccc2cc([C@H](C)C(=O)O)ccc2c1` [Naproxen] was tested. Which “thermal shift ΔTm of Mpro” value did it give?
**A.** 0.0316 °C and 0.0283 °C
